Test results as given in patent US20030157096A1.
These are yes or no findings as the source states them, for the method shown. Some entries that bind do so weakly or less than the wild type.

Molecular target: T1, zcytor11 and pDIRS1 receptors co-expressed on transfected BaF3 or BHK cells (human) (UniProt Q6UXL0)
T1 sequence 1: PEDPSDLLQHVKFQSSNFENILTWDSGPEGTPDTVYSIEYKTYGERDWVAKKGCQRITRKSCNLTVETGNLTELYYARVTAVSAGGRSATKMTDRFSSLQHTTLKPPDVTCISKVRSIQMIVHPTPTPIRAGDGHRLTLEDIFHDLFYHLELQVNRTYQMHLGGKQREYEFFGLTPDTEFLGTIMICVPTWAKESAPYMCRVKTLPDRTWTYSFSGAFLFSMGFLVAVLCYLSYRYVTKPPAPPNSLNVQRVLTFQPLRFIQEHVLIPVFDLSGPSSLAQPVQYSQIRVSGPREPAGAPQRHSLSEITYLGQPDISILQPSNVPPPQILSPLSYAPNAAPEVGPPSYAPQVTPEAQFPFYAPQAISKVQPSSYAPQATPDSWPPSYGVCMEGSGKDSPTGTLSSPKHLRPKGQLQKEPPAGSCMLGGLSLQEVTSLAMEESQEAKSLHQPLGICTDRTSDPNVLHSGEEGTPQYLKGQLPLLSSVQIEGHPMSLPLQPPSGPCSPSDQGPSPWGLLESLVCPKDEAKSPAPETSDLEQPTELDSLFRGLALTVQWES
T1 sequence 2: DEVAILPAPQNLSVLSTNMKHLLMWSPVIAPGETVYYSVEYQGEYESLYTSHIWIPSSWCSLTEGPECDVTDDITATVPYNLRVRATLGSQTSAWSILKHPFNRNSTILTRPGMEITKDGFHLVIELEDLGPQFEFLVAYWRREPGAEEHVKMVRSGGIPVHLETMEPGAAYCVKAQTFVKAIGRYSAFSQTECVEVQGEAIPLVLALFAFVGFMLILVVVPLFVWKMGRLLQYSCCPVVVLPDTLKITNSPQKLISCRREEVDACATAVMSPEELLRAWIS
Assay: flow cytometry, biotinylated IL-TIF-CEE at 10 or 1 µg/ml plus PE-streptavidin on BaF3 transfectants (same results stated for BHK transfectants)

binding: binds
B1: biotinylated human IL-TIF-CEE (ligand)
chain: APISSHCRLDKSNFQQPYITNRTFMLAKEASLADNNTDVRLIGEKLFHGVSMSERCYLMKQVLNFTLEEVLFPQSDRFQPYMQEVVPFLARLSNRLSTCHIEGDDLHIQRNVQKLKDTVKKLGESGEIKAIGELDLLFMSLRNACIEYMPME
modifications: biotinylated with EZ-link Sulfo-NHS-LC-biotin (sites not given)
